Data: EP1366764A1, “Method of screening for calcium receptor-active molecules” (The Brigham & Women's Hospital, Inc., priority 1993, dated 1994)
At least one structure is not confirmed: it was looked up by name or label, or the drawing left a doubt.

Test: Net positive charge of the molecule
Type: physicochemical
Conditions: at physiological pH (pH 7.3)

For `NC[C@H]1O[C@H](O[C@H]2[C@H](O)[C@@H](O[C@H]3O[C@H](CO)[C@@H](O)[C@H](N)[C@H]3O)[C@H](N)C[C@@H]2N)[C@H](O)[C@@H](O)[C@@H]1O` [kanamycin], the “Net (+) Charge” value was “+4.5”.
